Assay results taken from PMC3762332.
For at least one entry, the source does not settle the construct or the ends of the probe. For some of these results: Tags and fusion partners may be left off the protein sequences shown.

The chains behind the UniProt entries cited, without tags or fusion partners. Where a name states a change or a piece, a line headed by the entry shows the natural chain unless it says otherwise.
UniProt O00716: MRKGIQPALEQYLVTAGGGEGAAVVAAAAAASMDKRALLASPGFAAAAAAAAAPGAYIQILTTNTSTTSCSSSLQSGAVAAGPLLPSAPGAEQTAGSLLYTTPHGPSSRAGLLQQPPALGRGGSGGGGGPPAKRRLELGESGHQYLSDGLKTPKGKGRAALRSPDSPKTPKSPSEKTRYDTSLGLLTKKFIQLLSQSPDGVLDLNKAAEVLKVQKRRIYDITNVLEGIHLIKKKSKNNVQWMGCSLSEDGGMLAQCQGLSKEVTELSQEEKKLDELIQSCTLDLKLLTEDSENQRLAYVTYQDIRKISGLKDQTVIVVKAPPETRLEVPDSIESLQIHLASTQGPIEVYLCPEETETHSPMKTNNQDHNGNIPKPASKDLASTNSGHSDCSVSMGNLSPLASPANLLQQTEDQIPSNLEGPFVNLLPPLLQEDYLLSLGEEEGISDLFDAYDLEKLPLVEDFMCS
UniProt P43694: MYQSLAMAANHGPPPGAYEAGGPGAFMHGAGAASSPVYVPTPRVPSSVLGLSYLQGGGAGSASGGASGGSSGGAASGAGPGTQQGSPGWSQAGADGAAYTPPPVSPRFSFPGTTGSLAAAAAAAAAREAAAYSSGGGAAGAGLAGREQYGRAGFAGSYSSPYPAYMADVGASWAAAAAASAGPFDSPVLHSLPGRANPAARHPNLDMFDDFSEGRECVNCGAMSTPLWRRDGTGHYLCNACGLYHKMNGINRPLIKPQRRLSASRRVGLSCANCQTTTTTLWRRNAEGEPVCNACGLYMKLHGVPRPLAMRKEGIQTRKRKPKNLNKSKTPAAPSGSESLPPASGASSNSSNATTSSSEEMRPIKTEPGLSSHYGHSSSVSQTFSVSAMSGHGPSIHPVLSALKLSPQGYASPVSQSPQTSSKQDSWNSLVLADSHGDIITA
UniProt P20719: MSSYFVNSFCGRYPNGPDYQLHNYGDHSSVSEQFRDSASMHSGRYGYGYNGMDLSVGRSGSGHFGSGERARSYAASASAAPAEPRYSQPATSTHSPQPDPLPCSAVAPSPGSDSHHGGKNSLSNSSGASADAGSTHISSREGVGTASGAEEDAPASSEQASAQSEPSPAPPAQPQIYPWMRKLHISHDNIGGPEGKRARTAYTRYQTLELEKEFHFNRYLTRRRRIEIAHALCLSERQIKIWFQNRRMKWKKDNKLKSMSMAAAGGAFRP
UniProt P37231: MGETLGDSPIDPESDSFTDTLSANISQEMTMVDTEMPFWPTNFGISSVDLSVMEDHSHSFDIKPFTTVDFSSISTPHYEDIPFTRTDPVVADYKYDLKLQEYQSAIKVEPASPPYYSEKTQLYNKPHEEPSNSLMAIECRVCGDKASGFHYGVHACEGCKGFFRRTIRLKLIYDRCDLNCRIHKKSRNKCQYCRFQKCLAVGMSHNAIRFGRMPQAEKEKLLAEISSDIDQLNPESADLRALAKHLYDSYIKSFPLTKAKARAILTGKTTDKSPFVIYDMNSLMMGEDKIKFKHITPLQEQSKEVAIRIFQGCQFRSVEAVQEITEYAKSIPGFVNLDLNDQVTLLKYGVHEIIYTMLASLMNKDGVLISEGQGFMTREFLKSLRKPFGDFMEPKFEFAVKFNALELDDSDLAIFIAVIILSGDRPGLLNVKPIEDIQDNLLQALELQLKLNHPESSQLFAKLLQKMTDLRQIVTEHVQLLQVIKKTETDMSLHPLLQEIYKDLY
UniProt P19793: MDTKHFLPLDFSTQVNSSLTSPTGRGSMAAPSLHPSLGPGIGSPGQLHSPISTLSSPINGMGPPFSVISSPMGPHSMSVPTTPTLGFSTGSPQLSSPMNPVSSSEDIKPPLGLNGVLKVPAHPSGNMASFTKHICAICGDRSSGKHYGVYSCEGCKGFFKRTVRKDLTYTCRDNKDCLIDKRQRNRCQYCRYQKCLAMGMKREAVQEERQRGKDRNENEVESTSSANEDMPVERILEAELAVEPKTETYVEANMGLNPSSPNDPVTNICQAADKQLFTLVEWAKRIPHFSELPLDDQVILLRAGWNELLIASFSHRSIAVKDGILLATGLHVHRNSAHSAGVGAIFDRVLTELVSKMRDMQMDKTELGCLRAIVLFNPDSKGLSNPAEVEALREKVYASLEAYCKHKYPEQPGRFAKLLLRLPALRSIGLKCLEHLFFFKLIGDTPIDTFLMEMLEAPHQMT
UniProt Q8NC26: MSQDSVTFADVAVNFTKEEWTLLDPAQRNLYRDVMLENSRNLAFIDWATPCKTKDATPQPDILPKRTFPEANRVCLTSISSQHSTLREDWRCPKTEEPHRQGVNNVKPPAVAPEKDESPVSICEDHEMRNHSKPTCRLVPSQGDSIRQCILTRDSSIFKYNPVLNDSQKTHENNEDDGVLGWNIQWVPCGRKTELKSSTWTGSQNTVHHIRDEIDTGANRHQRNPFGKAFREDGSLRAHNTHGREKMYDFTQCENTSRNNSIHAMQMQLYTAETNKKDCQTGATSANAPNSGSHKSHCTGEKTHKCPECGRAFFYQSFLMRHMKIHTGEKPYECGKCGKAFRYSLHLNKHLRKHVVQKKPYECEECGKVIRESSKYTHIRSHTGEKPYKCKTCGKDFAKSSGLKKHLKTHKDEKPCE
UniProt Q9BWM5: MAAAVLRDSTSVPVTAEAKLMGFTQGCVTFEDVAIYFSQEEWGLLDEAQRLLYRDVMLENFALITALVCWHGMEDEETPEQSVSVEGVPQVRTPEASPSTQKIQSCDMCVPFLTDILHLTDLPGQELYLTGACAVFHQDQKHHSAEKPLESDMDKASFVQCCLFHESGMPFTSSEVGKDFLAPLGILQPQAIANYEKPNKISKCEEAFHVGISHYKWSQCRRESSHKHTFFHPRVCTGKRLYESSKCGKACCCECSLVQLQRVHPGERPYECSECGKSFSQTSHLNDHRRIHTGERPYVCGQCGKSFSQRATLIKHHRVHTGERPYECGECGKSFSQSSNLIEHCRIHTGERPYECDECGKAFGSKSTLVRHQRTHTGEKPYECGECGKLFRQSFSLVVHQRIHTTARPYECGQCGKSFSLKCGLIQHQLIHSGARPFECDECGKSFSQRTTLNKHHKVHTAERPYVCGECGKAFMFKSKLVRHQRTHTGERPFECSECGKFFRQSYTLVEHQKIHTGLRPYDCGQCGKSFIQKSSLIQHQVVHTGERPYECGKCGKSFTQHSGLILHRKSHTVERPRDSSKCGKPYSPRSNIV
UniProt Q8IW36: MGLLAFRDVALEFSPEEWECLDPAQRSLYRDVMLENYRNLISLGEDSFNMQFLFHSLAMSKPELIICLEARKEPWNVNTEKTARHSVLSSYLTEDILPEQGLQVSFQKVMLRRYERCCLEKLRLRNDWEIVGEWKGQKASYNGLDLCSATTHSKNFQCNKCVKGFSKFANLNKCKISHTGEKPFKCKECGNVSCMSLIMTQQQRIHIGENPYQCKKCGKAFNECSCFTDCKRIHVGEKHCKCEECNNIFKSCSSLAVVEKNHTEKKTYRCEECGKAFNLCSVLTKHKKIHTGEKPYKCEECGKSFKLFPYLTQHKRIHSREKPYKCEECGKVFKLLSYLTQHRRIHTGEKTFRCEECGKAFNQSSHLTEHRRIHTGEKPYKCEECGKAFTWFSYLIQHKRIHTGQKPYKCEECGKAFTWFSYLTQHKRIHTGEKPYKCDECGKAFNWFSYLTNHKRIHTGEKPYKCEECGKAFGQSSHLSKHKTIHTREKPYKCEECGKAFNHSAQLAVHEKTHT
UniProt P05549: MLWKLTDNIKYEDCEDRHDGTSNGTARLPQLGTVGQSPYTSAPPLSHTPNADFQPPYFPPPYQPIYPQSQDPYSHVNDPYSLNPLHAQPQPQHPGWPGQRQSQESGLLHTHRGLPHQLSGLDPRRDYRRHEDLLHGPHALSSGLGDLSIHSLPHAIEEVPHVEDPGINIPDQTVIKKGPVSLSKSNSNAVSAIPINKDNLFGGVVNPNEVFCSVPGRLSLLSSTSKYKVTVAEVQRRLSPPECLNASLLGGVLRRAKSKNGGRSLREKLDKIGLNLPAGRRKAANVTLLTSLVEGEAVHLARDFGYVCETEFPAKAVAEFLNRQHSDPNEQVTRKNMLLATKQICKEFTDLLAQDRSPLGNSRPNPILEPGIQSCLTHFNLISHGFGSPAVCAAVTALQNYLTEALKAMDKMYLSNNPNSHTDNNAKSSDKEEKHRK

Legend:
Experiment in all cases: protein microarray
Settings in all cases: 10-fold cold unmethylated competitor; 5mC at CpG (SssI, both strands); recombinant protein; protein details: GST (N-terminal); label: Cy5
BCL3 (Homo sapiens) = target: T1, BCL3 (Homo sapiens) (UniProt P20749)
T1 sequence (looked up, limits assumed): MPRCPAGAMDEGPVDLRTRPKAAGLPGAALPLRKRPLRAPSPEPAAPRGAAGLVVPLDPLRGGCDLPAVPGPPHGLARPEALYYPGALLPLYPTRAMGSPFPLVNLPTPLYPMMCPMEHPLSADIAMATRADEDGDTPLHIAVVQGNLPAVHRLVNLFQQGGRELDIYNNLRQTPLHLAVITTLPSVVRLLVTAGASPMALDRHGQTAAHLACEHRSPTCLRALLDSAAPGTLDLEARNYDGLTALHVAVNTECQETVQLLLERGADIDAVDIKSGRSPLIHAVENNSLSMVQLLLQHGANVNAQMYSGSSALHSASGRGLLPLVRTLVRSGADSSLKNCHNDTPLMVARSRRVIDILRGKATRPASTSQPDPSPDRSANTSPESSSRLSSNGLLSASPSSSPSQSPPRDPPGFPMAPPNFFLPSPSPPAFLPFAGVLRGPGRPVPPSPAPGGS

E2F3 (Homo sapiens) = E2F3 (Homo sapiens) (UniProt O00716)
GATA4 (Homo sapiens) = GATA4 (Homo sapiens) (UniProt P43694)
HOXA5 (Homo sapiens) = HOXA5 (Homo sapiens) (UniProt P20719)
NRF1 (Homo sapiens) = target: T2, NRF1 (Homo sapiens) (UniProt Q16656)
T2 sequence (looked up, limits assumed): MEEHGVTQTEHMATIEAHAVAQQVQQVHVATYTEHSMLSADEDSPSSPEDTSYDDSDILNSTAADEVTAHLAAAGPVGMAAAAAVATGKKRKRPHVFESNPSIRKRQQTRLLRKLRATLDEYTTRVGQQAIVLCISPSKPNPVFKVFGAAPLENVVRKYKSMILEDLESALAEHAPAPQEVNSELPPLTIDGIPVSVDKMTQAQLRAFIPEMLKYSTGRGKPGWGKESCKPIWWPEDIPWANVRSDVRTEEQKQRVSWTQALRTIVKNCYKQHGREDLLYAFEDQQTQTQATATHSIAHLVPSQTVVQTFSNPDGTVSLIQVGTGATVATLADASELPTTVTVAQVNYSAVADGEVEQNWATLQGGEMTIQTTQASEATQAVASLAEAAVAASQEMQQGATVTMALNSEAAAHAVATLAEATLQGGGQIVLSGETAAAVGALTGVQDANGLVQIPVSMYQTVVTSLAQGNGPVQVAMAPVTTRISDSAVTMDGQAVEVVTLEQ

PPARG (Homo sapiens) = PPARG (Homo sapiens) (UniProt P37231)
RNF138 (Homo sapiens) = target: T3, RNF138 (Homo sapiens) (UniProt Q8WVD3)
T3 sequence (looked up, limits assumed): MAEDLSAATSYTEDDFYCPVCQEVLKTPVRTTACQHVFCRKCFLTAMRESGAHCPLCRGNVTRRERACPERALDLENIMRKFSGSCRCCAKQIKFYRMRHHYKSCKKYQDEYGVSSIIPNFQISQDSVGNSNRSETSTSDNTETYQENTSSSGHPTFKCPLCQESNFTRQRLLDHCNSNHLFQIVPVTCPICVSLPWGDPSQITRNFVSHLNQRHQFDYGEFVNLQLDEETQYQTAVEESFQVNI

RXRA (Homo sapiens) = RXRA (Homo sapiens) (UniProt P19793)
SCAPER (Homo sapiens) = target: T4, SCAPER (Homo sapiens) (UniProt Q9BY12)
T4 sequence (looked up, limits assumed): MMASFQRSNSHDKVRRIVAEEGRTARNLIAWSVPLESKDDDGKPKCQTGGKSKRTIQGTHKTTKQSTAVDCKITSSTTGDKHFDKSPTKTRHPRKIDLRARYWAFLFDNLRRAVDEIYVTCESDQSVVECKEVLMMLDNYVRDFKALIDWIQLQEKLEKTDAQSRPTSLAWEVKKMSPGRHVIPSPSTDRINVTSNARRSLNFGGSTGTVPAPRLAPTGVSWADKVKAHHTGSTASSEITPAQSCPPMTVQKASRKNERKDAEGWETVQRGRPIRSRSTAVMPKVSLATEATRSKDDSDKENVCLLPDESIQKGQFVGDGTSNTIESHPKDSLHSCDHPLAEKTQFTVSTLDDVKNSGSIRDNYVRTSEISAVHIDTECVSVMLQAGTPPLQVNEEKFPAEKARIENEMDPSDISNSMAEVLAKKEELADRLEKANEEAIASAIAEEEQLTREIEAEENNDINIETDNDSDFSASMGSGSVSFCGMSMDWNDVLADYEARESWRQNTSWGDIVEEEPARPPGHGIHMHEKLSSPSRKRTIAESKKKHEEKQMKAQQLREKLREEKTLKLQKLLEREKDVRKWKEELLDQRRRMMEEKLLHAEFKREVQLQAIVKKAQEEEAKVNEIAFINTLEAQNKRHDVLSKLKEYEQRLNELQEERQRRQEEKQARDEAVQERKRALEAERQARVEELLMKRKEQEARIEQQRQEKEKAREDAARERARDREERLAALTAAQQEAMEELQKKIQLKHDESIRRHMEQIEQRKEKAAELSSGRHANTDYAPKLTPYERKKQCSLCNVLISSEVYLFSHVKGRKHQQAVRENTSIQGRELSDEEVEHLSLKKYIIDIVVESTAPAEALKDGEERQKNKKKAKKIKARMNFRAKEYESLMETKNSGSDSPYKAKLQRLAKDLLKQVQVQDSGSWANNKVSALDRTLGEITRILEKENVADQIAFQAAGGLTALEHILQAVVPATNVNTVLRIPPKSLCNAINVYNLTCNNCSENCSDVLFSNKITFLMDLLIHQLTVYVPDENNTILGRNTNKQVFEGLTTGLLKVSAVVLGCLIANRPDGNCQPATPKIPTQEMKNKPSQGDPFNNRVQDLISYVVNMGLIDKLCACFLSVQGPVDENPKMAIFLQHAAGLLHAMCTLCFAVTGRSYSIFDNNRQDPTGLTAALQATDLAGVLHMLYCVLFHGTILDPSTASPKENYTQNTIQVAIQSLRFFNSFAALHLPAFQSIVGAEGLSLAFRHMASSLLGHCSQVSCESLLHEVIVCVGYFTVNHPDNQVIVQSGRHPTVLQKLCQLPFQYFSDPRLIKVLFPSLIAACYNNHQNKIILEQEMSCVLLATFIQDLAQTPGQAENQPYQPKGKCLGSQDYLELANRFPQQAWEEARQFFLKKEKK

ZNF114 (Homo sapiens) = ZNF114 (Homo sapiens) (UniProt Q8NC26)
ZNF416 (Homo sapiens) = ZNF416 (Homo sapiens) (UniProt Q9BWM5)
ZNF695 (Homo sapiens) = ZNF695 (Homo sapiens) (UniProt Q8IW36)
ZCCHC7 (Homo sapiens) = target: T5, ZCCHC7 (Homo sapiens) (UniProt Q8N3Z6)
T5 sequence (looked up, limits assumed): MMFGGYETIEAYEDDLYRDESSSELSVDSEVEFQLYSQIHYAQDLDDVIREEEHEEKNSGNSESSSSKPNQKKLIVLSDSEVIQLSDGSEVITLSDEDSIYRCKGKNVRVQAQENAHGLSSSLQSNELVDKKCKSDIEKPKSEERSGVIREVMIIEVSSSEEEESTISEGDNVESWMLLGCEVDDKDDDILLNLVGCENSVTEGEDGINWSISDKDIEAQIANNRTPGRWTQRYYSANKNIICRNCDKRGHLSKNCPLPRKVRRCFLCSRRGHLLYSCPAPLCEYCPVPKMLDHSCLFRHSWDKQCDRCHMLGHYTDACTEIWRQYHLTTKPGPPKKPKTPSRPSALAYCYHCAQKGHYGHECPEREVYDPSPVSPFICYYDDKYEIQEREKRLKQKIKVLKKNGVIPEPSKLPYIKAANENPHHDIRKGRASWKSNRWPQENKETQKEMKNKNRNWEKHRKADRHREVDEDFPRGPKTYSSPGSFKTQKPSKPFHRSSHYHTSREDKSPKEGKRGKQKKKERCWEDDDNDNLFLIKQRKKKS

TFAP2A (Homo sapiens) = TFAP2A (Homo sapiens) (UniProt P05549)

Measured: binding result

TCAAGGACGTTTTCAAGGACGCCCTATAGTGAGTGCTATTA (double strand) [M372]
not listed: ZCCHC7 (Homo sapiens) | TFAP2A (Homo sapiens)
binds: all other assays above

AGGGCGGAAAAGGGCGGCCCTATAGTGAGTGCTATTA (double strand) [M71]
not listed: RNF138 (Homo sapiens) | RXRA (Homo sapiens) | ZNF695 (Homo sapiens) | TFAP2A (Homo sapiens)
binds: all other assays above

CTCCCCGAAACTCCCCGCCCTATAGTGAGTGCTATTA (double strand) [M85]
not listed: NRF1 (Homo sapiens) | ZNF695 (Homo sapiens) | ZCCHC7 (Homo sapiens) | TFAP2A (Homo sapiens)
binds: all other assays above

ACTTGCGCCAAAACTTGCGCCCCCTATAGTGAGTGCTATTA (double strand) [M252]
binds: E2F3 (Homo sapiens) | GATA4 (Homo sapiens) | TFAP2A (Homo sapiens) | ZNF114 (Homo sapiens) | ZNF416 (Homo sapiens) | ZNF695 (Homo sapiens)

GCGTGGAATTTGCGTGGAACCCTATAGTGAGTGCTATTA (double strand) [M448]
not listed: BCL3 (Homo sapiens) | ZNF695 (Homo sapiens) | TFAP2A (Homo sapiens)
binds: all other assays above

CTTCCGCAAACTTCCGCCCCTATAGTGAGTGCTATTA (double strand) [M70]
not listed: BCL3 (Homo sapiens) | ZNF695 (Homo sapiens) | TFAP2A (Homo sapiens)
binds: all other assays above

CGCCATGGCAACAAACGCCATGGCAACCCCTATAGTGAGTGCTATTA (double strand) [M249]
binds: E2F3 (Homo sapiens) | TFAP2A (Homo sapiens) | ZNF114 (Homo sapiens) | ZNF416 (Homo sapiens) | ZNF695 (Homo sapiens)

GAAACCCCTGGAATATTCCCGACAAAGAAACCCCTGGAATATTCCCGACCCCTATAGTGAGTGCTATTA (double strand) [M59]
binds: E2F3 (Homo sapiens) | GATA4 (Homo sapiens) | PPARG (Homo sapiens) | SCAPER (Homo sapiens) | TFAP2A (Homo sapiens) | ZNF114 (Homo sapiens) | ZNF416 (Homo sapiens) | ZNF695 (Homo sapiens)

GCCACGCCAAAGCCACGCCCCCTATAGTGAGTGCTATTA (double strand) [M89]
not listed: NRF1 (Homo sapiens) | ZNF695 (Homo sapiens) | TFAP2A (Homo sapiens)
binds: all other assays above

ATGGCGGCAAAATGGCGGCCCCTATAGTGAGTGCTATTA (double strand) [M78]
not listed: BCL3 (Homo sapiens) | ZNF695 (Homo sapiens) | TFAP2A (Homo sapiens)
binds: all other assays above

GTATCGGAAAAGTATCGGACCCTATAGTGAGTGCTATTA (double strand) [M450]
not listed: BCL3 (Homo sapiens) | ZNF695 (Homo sapiens) | TFAP2A (Homo sapiens)
binds: all other assays above
